The name of at least one read-out is uncertain.
Key:
Format in all cases: physicochemical
[1] = Nephelometric turbidity of water-ethanolic deodorant-spray formulation; details: increasing amounts of 4-hydroxyacetophenone added; perfume oil 836720
[2] = Nephelometric turbidity of ethanolic mouthwash concentrate formulation; details: increasing amounts of 4-hydroxyacetophenone added
[3] = Nephelometric turbidity of shampoo formulation with neutral oil; details: increasing amounts of 4-hydroxyacetophenone added
[4] = Nephelometric turbidity of shampoo formulation with perfume oil; details: addition of 4-hydroxyacetophenone

CC(=O)c1ccc(O)cc1 [4-hydroxyacetophenone]
Solubilization of perfume oil in deodorant-spray formulation [1]: significantly decreasing Nephelometric Turbidity Units
Solubilization of mint flavour oil in mouthwash concentrate formulation [2]: significantly decreasing Nephelometric Turbidity Units
Solubilization of neutral oil in shampoo formulation [3]: significantly decreasing Nephelometric Turbidity Units
Solubilization of perfume oil in shampoo formulation [4]: significantly lower Nephelometric Turbidity Units

— patent US12023396B2, “Flavour and fragrance compositions comprising acetophenone derivatives” (Symrise AG, priority 2014, dated 2024)
